Data reported in the supplement of paper PMC9744312.
Structures can show the parent of a compound that is named as a salt. The list shows a part of the results. The data scatter; read single values as rough.

system: Peyronie's disease tunica albuginea primary fibroblasts; assay: inhibition of TGF-beta1-induced alpha-SMA expression (myofibroblast transformation), relative to TGF-beta1-only and untreated controls; higher = stronger inhibition of myofibroblast transformation; details: 10 µM; TGF-beta1 10 ng/mL; 72 h

Row | SMILES | inhibition of TGF-beta1-induced alpha-SMA expression [%]
1 | CN1C(=O)OC(C)(C)C1=O [Trimethadione] | 12
2 | Nc1c(CC(=O)O)cccc1C(=O)c1ccc(Br)cc1 [Bromfenac Sodium] | 58.4
3 | CCCC(CCC)C(=O)O[C@H]1C[C@H]2CC[C@@H](C1)[N+]2(C)C [Anisotropine Methylbromide] | 13.1
4 | C[C@H](Cc1cc2c(c(C(N)=O)c1)N(CCCO)CC2)NCCOc1ccccc1OCC(F)(F)F [Silodosin] | 61.2
5 | Cc1onc(-c2c(F)cccc2Cl)c1C(=O)N[C@@H]1C(=O)N2[C@@H]1SC(C)(C)[C@@H]2C(=O)O [Flucloxacillin sodium] | -7.01
6 | O=C(NCCN1CCOCC1)c1ccc(Cl)cc1 | -15.9
7 | COc1c(C)c2c(c(O)c1C/C=C(\C)CCC(=O)O)C(=O)OC2 [Mycophenolic acid] | 14.7
8 | NS(=O)(=O)c1cc(Cl)c(Cl)c(S(N)(=O)=O)c1 [Dichlorphenamide (Diclofenamide)] | 55.6
9 | CCCCCNC(=N)N/N=C/c1c[nH]c2ccc(OC)cc12 [Tegaserod Maleate] | > 100
10 | CC1(C)C[C@@H]1C(=O)N/C(=C\CCCCSC[C@H](N)C(=O)O)C(=O)O [Cilastatin] | 21.9
11 | CCCCCC(=O)O[C@]1(C(C)=O)CC[C@H]2[C@@H]3CCC4=CC(=O)CC[C@]4(C)[C@H]3CC[C@@]21C [Hydroxyprogesterone caproate] | 14.8
12 | OC(c1cc(C(F)(F)F)nc2c(C(F)(F)F)cccc12)C1CCCCN1 (stereo not given) [Mefloquine HCl] | > 100
13 | CC[C@H]1OC(=O)C[C@@H](O)[C@H](C)[C@@H](O[C@@H]2O[C@H](C)[C@@H](O)[C@H](N(C)C)[C@H]2O)[C@@H](CCN2C[C@H](C)C[C@H](C)C2)C[C@@H](C)C(=O)/C=C/C(C)=C/[C@@H]1CO[C@@H]1O[C@H](C)[C@@H](O)[C@@H](OC)[C@H]1OC [Tilmicosin] | > 100
14 | CC[C@H]1OC(=O)C[C@@H](O)[C@H](C)[C@@H](O[C@@H]2O[C@H](C)[C@@H](O)[C@H](N(C)C)[C@H]2O)[C@@H](CCN2C[C@H](C)C[C@H](C)C2)C[C@@H](C)C(=O)/C=C/C(C)=C/[C@@H]1CO[C@@H]1O[C@H](C)[C@@H](O)[C@@H](OC)[C@H]1OC [Tilmicosin phosphate] | 31.5
15 | CNCCCC12CCC(c3ccccc31)c1ccccc12 [Maprotiline HCl] | 44.6
16 | CO/N=C(\C(=O)N[C@@H]1C(=O)N2C(C(=O)[O-])=C(C[N+]3(C)CCCC3)CS[C@H]12)c1csc(N)n1 [Cefepime Dihydrochloride Monohydrate] | -0.906
17 | C[C@]12C=CC(=O)C=C1CC[C@H]1[C@@H]3C[C@@H](O)[C@](O)(C(=O)CO)[C@@]3(C)C[C@H](O)[C@@]12F [Triamcinolone] | 81.8
18 | CC1(C)O[C@@H]2C[C@H]3[C@@H]4CCC5=CC(=O)CC[C@]5(C)[C@@]4(F)[C@@H](O)C[C@]3(C)[C@]2(C(=O)CCl)O1 [Halcinonide] | 73.2
19 | C=C1CCN([C@H](C)[C@](O)(Cn2cncn2)c2ccc(F)cc2F)CC1 [Efinaconazole] | 30.1
20 | O=C1C(CC[S+]([O-])c2ccccc2)C(=O)N(c2ccccc2)N1c1ccccc1 (racemic) [(+/-)-Sulfinpyrazone] | 8.42
21 | C[C@@H]1O[C@@H](OC[C@H]2O[C@@H](Oc3c(-c4ccc(OCCO)c(OCCO)c4)oc4cc(OCCO)cc(O)c4c3=O)[C@H](O)[C@@H](O)[C@@H]2O)[C@H](O)[C@H](O)[C@H]1O [Troxerutin] | -14.8
22 | CCN(CC)C(=O)/C(C#N)=C/c1cc(O)c(O)c([N+](=O)[O-])c1 [Entacapone] | -31

Row | SMILES | inhibition of TGF-beta1-induced alpha-SMA expression [%]
23 | C[C@@H](O)[C@H]1C(=O)N2C(C(=O)O)=C(S[C@@H]3CN[C@H](C(=O)N(C)C)C3)[C@H](C)[C@H]12 [Meropenem Trihydrate] | 89.8
24 | C[C@@H](O)[C@H]1C(=O)N2C(C(=O)O)=C(S[C@@H]3CN[C@H](C(=O)N(C)C)C3)[C@H](C)[C@H]12 [Meropenem] | 8.72
25 | COc1ccc(NC(=O)c2ccc(C(=N)N(C)C)cc2)c(C(=O)Nc2ccc(Cl)cn2)c1 [Betrixaban maleate] | 7.5
26 | COc1ccc(NC(=O)c2ccc(C(=N)N(C)C)cc2)c(C(=O)Nc2ccc(Cl)cn2)c1 [Betrixaban] | -4.71
27 | CC(=O)O[C@H]1C[C@@H]2CC[C@@H]3[C@H](CC[C@@]4(C)[C@H]3C[C@H]([N+]3(C)CCCCC3)[C@@H]4OC(C)=O)[C@@]2(C)C[C@@H]1N1CCCCC1 [Vecuronium Bromide] | 13.1
28 | Cc1cc(C)cc(OCC2CNC(=O)O2)c1 (stereo not given) [Metaxalone] | 0.64
29 | C#C[C@]1(O)CC[C@H]2[C@@H]3CCc4cc(O)ccc4[C@H]3CC[C@@]21C [Ethinyl Estradiol] | 50.9
30 | CN[C@@H]1[C@@H](O)[C@@H](O[C@@H]2[C@@H](O)[C@H](O[C@H]3O[C@H](CN)[C@@H](O)[C@H](O)[C@H]3O)[C@@H](N)C[C@H]2NC(=O)[C@@H](O)CN)OC[C@]1(C)O [Isepamicin Sulphate] | -9.99
31 | Cc1occc(=O)c1O [Maltol] | 14
32 | CCc1ccc(Cc2ccc3c(c2)[C@]2(OC3)O[C@H](CO)[C@@H](O)[C@H](O)[C@H]2O)cc1 [Tofogliflozin(CSG 452)] | -35.4
33 | CCOC(=O)C1=C(C)NC(C)=C(C(=O)OCC)C1c1ccccc1/C=C/C(=O)OC(C)(C)C [Lacidipine] | 49.3
34 | CCOc1cc(CC(=O)N[C@@H](CC(C)C)c2ccccc2N2CCCCC2)ccc1C(=O)O [Repaglinide] | 29.7
35 | CC(=O)OCC(=O)[C@@]1(O)[C@H](C)C[C@H]2[C@@H]3CCC4=CC(=O)C=C[C@]4(C)[C@@]3(F)[C@@H](O)C[C@@]21C [Dexamethasone Acetate] | 89.5
36 | COc1ncnc(NS(=O)(=O)c2ccc(N)cc2)c1OC [Sulfadoxine] | 35.5
37 | COc1ccc(C(=O)c2ccccc2)c(O)c1 [Oxybenzone] | 1.2
38 | COc1c(N2C[C@@H]3CCCN[C@@H]3C2)c(F)cc2c(=O)c(C(=O)O)cn(C3CC3)c12 [Moxifloxacin HCl] | -13.8
39 | COc1c(N2C[C@@H]3CCCN[C@@H]3C2)c(F)cc2c(=O)c(C(=O)O)cn(C3CC3)c12 [Moxifloxacin] | 13.5
40 | CCCCOC(=O)c1ccccc1Nc1cccc(C(F)(F)F)c1 [Ufenamate] | 52.2
41 | COc1ccc(C(=O)CC(=O)c2ccc(C(C)(C)C)cc2)cc1 [Avobenzone] | 17.7
42 | Nc1nc2c(ncn2COCCO)c(=O)[nH]1 [Aciclovir] | 7.62
43 | COc1ccc2[nH]c([S@@+]([O-])Cc3ncc(C)c(OC)c3C)nc2c1 [Esomeprazole sodium] | -13
44 | COc1ccc2[nH]c([S@@+]([O-])Cc3ncc(C)c(OC)c3C)nc2c1 [NEXIUM (esomeprazole magnesium)] | 1.03

Row | SMILES | inhibition of TGF-beta1-induced alpha-SMA expression [%]
45 | CS(=O)(=O)N1CCN(Cc2cc3nc(-c4cccc5[nH]ncc45)nc(N4CCOCC4)c3s2)CC1 [Pictilisib (GDC-0941)] | 73
46 | CC(C)NCC(O)c1ccc(O)c(O)c1 (stereo not given) [Isoprenaline HCl] | 23.7
47 | CCCCC(CC)COC(=O)C=Cc1ccc(OC)cc1 (stereo not given) [Octinoxate] | 30.7
48 | CCOc1ccc(Cc2cc([C@]34OC[C@](CO)(O3)[C@@H](O)[C@H](O)[C@H]4O)ccc2Cl)cc1 [Ertugliflozin] | 47.2
49 | CCCC1O[C@@H]2C[C@H]3[C@@H]4CCC5=CC(=O)C=C[C@]5(C)[C@H]4[C@@H](O)C[C@]3(C)[C@]2(C(=O)CO)O1 (stereo not given in full) [Budesonide] | 34.1
50 | COc1cc(C(C)=O)ccc1OCCCN1CCC(c2noc3cc(F)ccc23)CC1 [Iloperidone] | -2.23
51 | Cc1cccc(C)c1N(CC(=O)Nc1ccc(-c2ncon2)cc1)C(=O)C1CCS(=O)(=O)CC1 [Amenamevir] | 36.6
52 | O=NN(CCCl)C(=O)NCCCl [Carmustine] | -4.34
53 | CCOC(=O)c1ncn2c1CN(C)C(=O)c1cc(F)ccc1-2 [Flumazenil] | 3.13
54 | Cc1cc(C)c2c(c1)[C@@H](N(Cc1cc(C(F)(F)F)cc(C(F)(F)F)c1)c1nnn(C)n1)CCCN2C[C@H]1CC[C@H](C(=O)O)CC1 | -3.75
55 | Cl.NCCCC[C@H](N)C(=O)O [L-Lysine hydrochloride] | -10.8
56 | CC(C(=O)O)c1cccc(C(=O)c2ccccc2)c1 (stereo not given) [Ketoprofen] | 22.2
57 | COC(=O)N[C@H](C(=O)N1CCC[C@H]1c1ncc(-c2ccc(-c3ccc(-c4cnc([C@@H]5CCCN5C(=O)[C@@H](NC(=O)OC)C(C)C)[nH]4)cc3)cc2)[nH]1)C(C)C | 3.76
58 | CC(C)(C)C(=O)C(Oc1ccc(Cl)cc1)n1ccnc1 (stereo not given) [Climbazole] | > 100
59 | Cc1ccccc1OCC(O)CO (stereo not given) [Mephenesin] | 11.6
60 | O=C1CN(/N=C/c2ccc([N+](=O)[O-])o2)C(=O)N1 [Nitrofurantoin] | -6.8
61 | C[C@H](N)[C@H](O)c1cccc(O)c1 [Metaraminol Bitartrate] | 35.7
62 | CC1(C)S[C@@H]2[C@H](NC(=O)C(C(=O)O)c3ccccc3)C(=O)N2[C@H]1C(=O)O (stereo not given in full) [Carbenicillin disodium] | 24.8
63 | O=C1CN(/N=C/c2ccc(-c3ccc([N+](=O)[O-])cc3)o2)C(=O)N1 [Dantrolene sodium] | 15.3
64 | O=C1CN(/N=C/c2ccc(-c3ccc([N+](=O)[O-])cc3)o2)C(=O)N1 [Dantrolene sodium hemiheptahydrate] | 10.4
65 | CC(C)OC(=O)CCC/C=C\C[C@@H]1[C@@H](/C=C/[C@@H](O)COc2cccc(C(F)(F)F)c2)[C@H](O)C[C@@H]1O [Travoprost] | -2.9

Nos. 49–64, quoted:
Row | SMILES | inhibition of TGF-beta1-induced alpha-SMA expression [%]
49 | CCCC1O[C@@H]2C[C@H]3[C@@H]4CCC5=CC(=O)C=C[C@]5(C)[C@H]4[C@@H](O)C[C@]3(C)[C@]2(C(=O)CO)O1 (stereo not given in full) [Budesonide] | 34.1
50 | COc1cc(C(C)=O)ccc1OCCCN1CCC(c2noc3cc(F)ccc23)CC1 [Iloperidone] | -2.23
51 | Cc1cccc(C)c1N(CC(=O)Nc1ccc(-c2ncon2)cc1)C(=O)C1CCS(=O)(=O)CC1 [Amenamevir] | 36.6
52 | O=NN(CCCl)C(=O)NCCCl [Carmustine] | -4.34
53 | CCOC(=O)c1ncn2c1CN(C)C(=O)c1cc(F)ccc1-2 [Flumazenil] | 3.13
54 | Cc1cc(C)c2c(c1)[C@@H](N(Cc1cc(C(F)(F)F)cc(C(F)(F)F)c1)c1nnn(C)n1)CCCN2C[C@H]1CC[C@H](C(=O)O)CC1 | -3.75
55 | Cl.NCCCC[C@H](N)C(=O)O [L-Lysine hydrochloride] | -10.8
56 | CC(C(=O)O)c1cccc(C(=O)c2ccccc2)c1 (stereo not given) [Ketoprofen] | 22.2
57 | COC(=O)N[C@H](C(=O)N1CCC[C@H]1c1ncc(-c2ccc(-c3ccc(-c4cnc([C@@H]5CCCN5C(=O)[C@@H](NC(=O)OC)C(C)C)[nH]4)cc3)cc2)[nH]1)C(C)C | 3.76
58 | CC(C)(C)C(=O)C(Oc1ccc(Cl)cc1)n1ccnc1 (stereo not given) [Climbazole] | > 100
59 | Cc1ccccc1OCC(O)CO (stereo not given) [Mephenesin] | 11.6
60 | O=C1CN(/N=C/c2ccc([N+](=O)[O-])o2)C(=O)N1 [Nitrofurantoin] | -6.8
61 | C[C@H](N)[C@H](O)c1cccc(O)c1 [Metaraminol Bitartrate] | 35.7
62 | CC1(C)S[C@@H]2[C@H](NC(=O)C(C(=O)O)c3ccccc3)C(=O)N2[C@H]1C(=O)O (stereo not given in full) [Carbenicillin disodium] | 24.8
63 | O=C1CN(/N=C/c2ccc(-c3ccc([N+](=O)[O-])cc3)o2)C(=O)N1 [Dantrolene sodium] | 15.3
64 | O=C1CN(/N=C/c2ccc(-c3ccc([N+](=O)[O-])cc3)o2)C(=O)N1 [Dantrolene sodium hemiheptahydrate] | 10.4
